Experimental data published in US20200040064A1 (OHIO STATE INNOVATION FOUNDATION, published 2020).
No constants are given. Whether binding was seen depends on the method and setting. Some entries that bind do so weakly or less than the wild type.

Chains of the proteins cited; added tags and fusions are not shown. Lines headed by an entry give the natural chain unless they say otherwise; changes in a name come on top.
UniProt P04488: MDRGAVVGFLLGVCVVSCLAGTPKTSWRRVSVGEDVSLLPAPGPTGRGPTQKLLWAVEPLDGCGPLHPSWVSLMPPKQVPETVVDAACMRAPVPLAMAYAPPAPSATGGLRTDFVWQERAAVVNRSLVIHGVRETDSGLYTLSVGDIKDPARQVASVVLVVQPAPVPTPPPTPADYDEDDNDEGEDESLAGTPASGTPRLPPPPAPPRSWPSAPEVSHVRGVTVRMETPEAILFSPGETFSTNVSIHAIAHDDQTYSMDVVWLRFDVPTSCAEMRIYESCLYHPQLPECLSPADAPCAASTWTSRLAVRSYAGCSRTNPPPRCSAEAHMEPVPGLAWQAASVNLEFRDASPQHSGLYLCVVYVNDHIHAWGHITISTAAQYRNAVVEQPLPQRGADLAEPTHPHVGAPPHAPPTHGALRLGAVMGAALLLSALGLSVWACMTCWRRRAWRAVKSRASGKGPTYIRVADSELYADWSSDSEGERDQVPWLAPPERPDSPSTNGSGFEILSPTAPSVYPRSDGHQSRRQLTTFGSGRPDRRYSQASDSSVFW

Biological target: HSV1 gE/gI complex on glioma cells expressing both Us7 and Us8 (glioma Us7+Us8) (herpes simplex virus 1 (F strain)) (UniProt P04488)
Experiment: flow cytometry on transfected glioma cells

IgG1 Fc(ACD16), recombinant human IgG1 Fc fragment aa262-466 without the CD16a binding sites (from UniProt P0DOX5 245-449)
binding: binds
